Experimental data reported in the supplement of paper PMC10689618.
Where a name gives a salt, the structure may show the parent alone. Some of the results follow. Many values rest on one well or one pass, so single values are uncertain.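 Primary human fetal astrocytes engulfed labelled rat cortical synaptosomes, measured as a red/green ratio corrected for calcein live-cell signal and scaled to the plate median. Toxicity meant calcein falling over 30%; decreased phagocytosis meant below 70% of median above 5 µM.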

Legend:
[1] = tested on: Human fetal astrocytes; experiment: loss of total cells relative to no-compound high-control median (toxicity); higher = more toxic (fewer cells); conditions: 24 h
[2] = tested on: Human fetal astrocytes; experiment: synaptosome phagocytosis (pHrodo/calcein intensity ratio) relative to plate median of data wells; higher = more phagocytosis; conditions: 24 h

Row | SMILES | loss of total cells ([1]; 1.39 µM) [%] | loss of total cells ([1]; 2.78 µM) [%] | loss of total cells ([1]; 5.56 µM) [%] | loss of total cells ([1]; 11.11 µM) [%] | loss of total cells ([1]; 22.22 µM) [%] | synaptosome phagocytosis ([2]; 1.39 µM) [%] | synaptosome phagocytosis ([2]; 2.78 µM) [%] | synaptosome phagocytosis ([2]; 5.56 µM) [%] | synaptosome phagocytosis ([2]; 11.11 µM) [%] | synaptosome phagocytosis ([2]; 22.22 µM) [%]
1 | C#CCN[C@H](C)Cc1ccccc1 [R-(-)-Desmethyldeprenyl hydrochloride] | 2.1 | -19.7 | 6.6 | 5.8 | -1.6 | 94.3 | 96.4 | 114 | 96.7 | 116
2 | C[C@@H]1O[C@@H](O[C@H]2C[C@@H](O)[C@]3(CO)[C@H]4[C@H](O)C[C@]5(C)[C@@H]([C@@H]6COC(=O)C6)CC[C@]5(O)[C@@H]4CC[C@]3(O)C2)[C@H](O)[C@H](O)[C@H]1O [Dihydroouabain] | 19.7 | 11.1 | 1.6 | 7.6 | 23.2 | 165 | 154 | 150 | 81.6 | 63
3 | NC(=O)CN1CC(O)CC1=O (stereo not given) [Oxiracetam] | -5.2 | 3.2 | 11.7 | 4.8 | 0.9 | 111 | 109 | 79.4 | 98 | 135
4 | CP(=O)(O)C1=CCNCC1 | -10.2 | -23.1 | -20.2 | -14.9 | -29.6 | 110 | 88.8 | 102 | 85.2 | 106
5 | CCCN1CCC[C@@H]2Cc3n[nH]cc3C[C@H]21 (racemic) [(±)-Quinpirole dihydrochloride] | -15.2 | -30.8 | -10.7 | -21.8 | -20.6 | 83.3 | 87.8 | 71.1 | 103 | 138
6 | COc1ccc2[nH]cc(CCN)c2c1 [O-Methylserotonin hydrochloride] | -25.1 | 0.5 | 10.8 | 19 | 3.7 | 94.1 | 65.2 | 105 | 124 | 81.4
7 | N#CC(C#N)=Cc1ccc(O)c(O)c1 [Tyrphostin 23] | -19.6 | -11.7 | -5.1 | -1.9 | -18.1 | 108 | 105 | 120 | 110 | 121
8 | O=[N+]([O-])c1ccc2nc(N3CCNCC3)ccc2c1 [Quipazine, 6-nitro-, maleate] | -0.9 | -23.7 | -12.4 | -11.1 | -32.9 | 86.2 | 84.9 | 91.9 | 98.1 | 85.5
9 | NC(=O)c1cc(N2CC2)c([N+](=O)[O-])cc1[N+](=O)[O-] | -15.4 | -2.7 | -8.8 | -8.5 | 13.2 | 75.9 | 102 | 95.2 | 97.2 | 94.7
10 | CC[C@H]1CN2CCc3cc(OC)c(OC)cc3[C@@H]2C[C@@H]1C[C@H]1NCCc2cc(OC)c(OC)cc21 [Emetine dihydrochloride hydrate] | -7.9 | -23.9 | -4.1 | -48 | -19.2 | 53.1 | 42 | 32.9 | 47.6 | 25
